Measurements: US20230331779A1, “BISPECIFIC FUSION POLYPEPTIDE COMPOUND” (SHAANXI MICOT TECHNOLOGY CO., LTD., priority 2020, published 2023)
At least one compound was matched to its structure with a doubt left. Some entries share one result that the patent states for a list of compounds.

How the values were obtained:
[1] = Plasma PTH in 5/6 nephrectomy rats (secondary hyperparathyroidism model); type: in vivo, rat; settings: for reduction of plasma PTH: 4 h after administration, first administration and 2nd, 4th, 6th weeks, vs Vehicle, Example 1 at 1.0, 2.0, 4.0 mg/kg, etelcalcetide at 3.0 mg/kg; for PTH change in plasma 4 h after administration: 5/6 nephrectomy rats
Procedure: Male SD rats were divided into a sham operation group and a 5/6 nephrectomy group (5/6Nx). Rats in the nephrectomy group underwent 5/6 nephrectomy, and were fed with high-phosphorus diet for two weeks after the operation to accelerate the induction of the secondary hyperparathyroidism rat model. After being fed with high-phosphorus diet for 3 weeks, the model rats were randomly divided into 6 groups, a 5/6Nx group (Vehicle), a positive control drug etelcalcetide group (3.0 mg/kg) and 4 groups of the compound of Example 1 (0.5, 1.0, 2.0, 4.0 mg/kg). The rats were administered subcutaneously three times a week for 6 consecutive weeks. Before the first administration, after the first administration, and 4 hours after administration in the 2nd, 4th, and 6th week, blood samples were collected from rats, and the plasma and serum were separated for the detection of the content of PTH in the plasma at each time point.

[2] = target: T1, calcium-sensing receptor (CASR) (Homo sapiens, UniProt P41180); assay: CaSR activation, HTRF IP-1 competition method in HEK293-CaSR cells; type: cell-based
T1 construct: expressed in transfected cells; host or cells: HEK293-CaSR cells
T1 sequence (P41180 20-1078): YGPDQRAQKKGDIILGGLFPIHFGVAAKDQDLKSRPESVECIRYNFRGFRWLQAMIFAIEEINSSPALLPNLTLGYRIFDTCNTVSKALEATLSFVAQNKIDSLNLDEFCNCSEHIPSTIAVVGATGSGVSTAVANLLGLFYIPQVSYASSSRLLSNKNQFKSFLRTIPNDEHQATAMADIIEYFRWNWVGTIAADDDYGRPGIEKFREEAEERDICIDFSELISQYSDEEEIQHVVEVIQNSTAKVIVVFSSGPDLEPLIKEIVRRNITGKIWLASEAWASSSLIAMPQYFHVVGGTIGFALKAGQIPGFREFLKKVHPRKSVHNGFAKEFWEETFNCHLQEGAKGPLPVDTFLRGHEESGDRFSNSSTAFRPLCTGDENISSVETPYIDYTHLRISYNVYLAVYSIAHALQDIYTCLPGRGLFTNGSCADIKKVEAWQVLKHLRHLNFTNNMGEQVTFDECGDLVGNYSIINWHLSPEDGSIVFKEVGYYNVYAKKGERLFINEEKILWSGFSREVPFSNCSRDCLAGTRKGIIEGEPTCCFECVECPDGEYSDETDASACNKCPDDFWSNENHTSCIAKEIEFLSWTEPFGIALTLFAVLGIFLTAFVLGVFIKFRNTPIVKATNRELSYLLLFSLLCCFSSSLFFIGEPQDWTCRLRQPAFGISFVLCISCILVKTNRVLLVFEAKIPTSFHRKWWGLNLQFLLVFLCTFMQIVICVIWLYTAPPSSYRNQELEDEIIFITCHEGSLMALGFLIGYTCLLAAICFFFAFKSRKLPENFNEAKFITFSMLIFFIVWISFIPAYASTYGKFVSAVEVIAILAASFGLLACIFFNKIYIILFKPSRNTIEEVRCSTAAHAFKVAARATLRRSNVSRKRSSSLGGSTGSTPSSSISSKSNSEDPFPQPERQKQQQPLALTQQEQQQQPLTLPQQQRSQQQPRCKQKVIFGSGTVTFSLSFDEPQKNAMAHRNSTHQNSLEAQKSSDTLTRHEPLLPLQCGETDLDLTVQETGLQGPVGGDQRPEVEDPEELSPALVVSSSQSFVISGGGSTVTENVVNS
Description: In the CaSR activation experiment, the Homogeneous Time-Resolved Fluorescence (HTRF) IP-1 (myolnositol 1 phosphate) competition method was used to detect the effect of the polypeptide of Example 1 on CaSR.

[3] = Effect of single intravenous injection on blood phosphorus in normal rats; type: in vivo, rat; settings: for blood phosphorus level after a single intravenous bolus injection: normal SD rats
Procedure: (§1) Test method: SPF grade SD rats, weighing 250-280 g, were randomly divided into 7 groups, 6 administration groups and 1 blank control group (Vehicle=normal saline). The test samples were prepared into a solution with normal saline for administration. The test compound was administered by a single tail vein injection (1 mL/kg) at a dose of 0.5 mg/kg, 1.5 mg/kg and 4.5 mg/kg, respectively. Serum calcium (mmol/L) and phosphorus levels (mmol/L) were measured at 0 hour and at 4, 8 and 16 hours after administration.
(§2) Data processing: The concentrations of PTH, calcium and phosphorus in each group and at each time point were statistically analyzed using the graphpad 6.0 software.

[4] = tested on: osteoblast MC3T3-E1 Subclone 4 cells; assay: CyQUANT in vitro proliferation of osteoblast cells; type: cell-based; settings: FIG. 1; Example 1 effect more pronounced than that of OGP
Procedure: (§3) The CyQUANT cell proliferation detection kit was used to determine the in vitro proliferation effect of the polypeptide of Example 1 on osteoblast MC3T3-E1 Subclone 4 and fibroblast NIH/3T3 cells. Osteogenic growth peptide (OGP) was used as a positive control in the experiment. The polypeptide of Example 1 and OGP were prepared to the following concentrations: 10^−8 mol/L, 10^−9 mol/L, 10^−10 mol/L, 10^−11 mol/L, 10^−12 mol/L, 10^−13 mol/L, 10^−14 mol/L, 10^−15 mol/L and 10^−16 mol/L. 100 μL of medium was discarded from each well of the cell plate to be tested, and 100 μL of 2×CyQuant detection reagent was added to each well. The plate was then placed in a 37° C., 5% CO2 incubator for 60 min. Fluorescence values were read in bottom-reading mode with excitation and emission wavelengths of 480/535 nm.
(§4) % relative to Control=(reading value of compound well−reading value of blank control well)/(reading value of base control well−reading value of blank control well)×100

[5] = Cortical bone porosity in adenine-gavage SHPT rats (Micro CT of femur); type: in vivo, rat; settings: for Cortical bone porosity: adenine-gavage rats, Mean ± SEM
Procedure: According to the Yokozawz method, SD rats were given adenine gavage to establish an animal model of chronic renal failure, and fed with a high-phosphorus diet to induce a model of secondary hyperparathyroidism. Rats were fed until the end of the experiment, and model rats were screened according to the content of PTH in plasma. According to the PTH content and body weight, the model rats were randomly divided into 5 groups: a normal saline group, an etelcalcetide (3.0 mg/kg, dissolved in normal saline) group, 3 groups of Example 1 (1.0 mg/kg, 2.0 mg/kg and 4.0 mg/kg, dissolved in normal saline), and subcutaneously administered three times a week for six consecutive weeks at 1.0 ml/kg per rat. Six weeks later, the left femur of the rat was taken, the muscle and connective tissue were removed, and the femur was placed in a 4% formalin solution. Micro CT scanning was performed 24 hours later, and data was subjected analysis.

[6] = Effect of single intravenous injection on blood calcium in normal rats; type: in vivo, rat; settings: for blood calcium level after a single intravenous bolus injection: normal SD rats
Procedure: as §1, §2

fibroblast NIH/3T3 cells = assay: CyQUANT in vitro proliferation of fibroblast cells; type: cell-based; settings: FIG. 1; comparable effective dose for Example 1 and OGP
Procedure: as §3, §4

[7] = 0.5 mg/kg i.v., 0 h (before administration)
[8] = 1.5 mg/kg i.v., 0 h (before administration)
[9] = 4.5 mg/kg i.v., 0 h (before administration)

## CC(=O)N[C@H](CSSC[C@H](N)C(=O)O)C(=O)N[C@H](C)C(=O)N[C@H](CCCNC(=N)N)C(=O)N[C@H](CCCNC(=N)N)C(=O)N[C@H](CCCNC(=N)N)C(=O)N[C@H](C)C(=O)N[C@H](CCCNC(=N)N)C(N)=O [Etelcalcetide, etelcalcetide, reference compound]
[1]
  reduction of plasma PTH: ≥ 90%

## CC(=O)N[C@H](CSSC[C@H](NC(=O)CNC(=O)CNC(=O)[C@@H](Cc1ccccc1)NC(=O)C(C)(C)NC(=O)[C@H](N)Cc1ccc(O)cc1)C(=O)O)C(=O)N[C@H](C)C(=O)N[C@H](CCCNC(=N)N)C(=O)N[C@H](CCCNC(=N)N)C(=O)N[C@H](CCCNC(=N)N)C(=O)N[C@H](C)C(=O)N[C@H](CCCNC(=N)N)C(N)=O [Example 1]
[1]; 0.5 mg/kg s.c. three times a week, 2 weeks
  PTH change in plasma 4 h after administration: −75.30 ± 7.87%
[1]; 0.5 mg/kg s.c. three times a week, 4 weeks
  PTH change in plasma 4 h after administration: −62.15 ± 7.90%
[1]; 0.5 mg/kg s.c. three times a week, 6 weeks
  PTH change in plasma 4 h after administration: −62.51 ± 8,63%
[1]; 0.5 mg/kg s.c. three times a week, first administration
  PTH change in plasma 4 h after administration: −75.68 ± 4.71%
[1]; 1.0 mg/kg s.c. three times a week, 2 weeks
  PTH change in plasma 4 h after administration: −93.54 ± 1.30%
[1]; 1.0 mg/kg s.c. three times a week, 4 weeks
  PTH change in plasma 4 h after administration: −88.78 ± 3.38%
[1]; 1.0 mg/kg s.c. three times a week, 6 weeks
  PTH change in plasma 4 h after administration: −75.71 ± 7.55%
[1]; 1.0 mg/kg s.c. three times a week, first administration
  PTH change in plasma 4 h after administration: −90.25 ± 2.40%
[1]; 2.0 mg/kg s.c. three times a week, 2 weeks
  PTH change in plasma 4 h after administration: −94.39 ± 0.89%
[1]; 2.0 mg/kg s.c. three times a week, 4 weeks
  PTH change in plasma 4 h after administration: −94.36 ± 1.01%
[1]; 2.0 mg/kg s.c. three times a week, 6 weeks
  PTH change in plasma 4 h after administration: −94.04 ± 1.16%
[1]; 2.0 mg/kg s.c. three times a week, first administration
  PTH change in plasma 4 h after administration: −95.13 ± 0.70%
[1]; 4.0 mg/kg s.c. three times a week, 2 weeks
  PTH change in plasma 4 h after administration: −93.87 ± 0.86%
[1]; 4.0 mg/kg s.c. three times a week, 4 weeks
  PTH change in plasma 4 h after administration: −94.96 ± 0.66%
[1]; 4.0 mg/kg s.c. three times a week, 6 weeks
  PTH change in plasma 4 h after administration: −94.79 ± 0.50%
[1]; 4.0 mg/kg s.c. three times a week, first administration
  PTH change in plasma 4 h after administration: −94.08 ± 0.90%
[1]
  reduction of plasma PTH: ≥ 90%
[2]; Ca2+ concentration of 1.2 mM
  agonistic activity on HEK293-CaSR cells (in words): significant agonistic activity
[2]; in the absence of Ca2+
  agonist activity on HEK293-CaSR cells (in words): weak
[3]; high-dose group (4.5 mg/kg)
  time at which serum phosphorus level reached the highest: 8 h
[3]; low-dose group (0.5 mg/kg and 1.5 mg/kg)
  time at which serum phosphorus level reached the highest: 4 h
[3]; [7]
  blood phosphorus level after a single intravenous bolus injection: 2.72 ± 0.1 mmol/L
[3]; 0.5 mg/kg i.v., 4 h
  blood phosphorus level after a single intravenous bolus injection: 2.74 ± 0.06 mmol/L
[3]; 0.5 mg/kg i.v., 8 h
  blood phosphorus level after a single intravenous bolus injection: 2.51 ± 0.05 mmol/L
[3]; 0.5 mg/kg i.v., 16 h
  blood phosphorus level after a single intravenous bolus injection: 2.33 ± 0.06 mmol/L
[3]; [8]
  blood phosphorus level after a single intravenous bolus injection: 2.64 ± 0.06 mmol/L
[3]; 1.5 mg/kg i.v., 4 h
  blood phosphorus level after a single intravenous bolus injection: 2.96 ± 0.09 mmol/L
[3]; 1.5 mg/kg i.v., 8 h
  blood phosphorus level after a single intravenous bolus injection: 2.82 ± 0.05 mmol/L
[3]; 1.5 mg/kg i.v., 16 h
  blood phosphorus level after a single intravenous bolus injection: 2.59 ± 0.12 mmol/L
[3]; [9]
  blood phosphorus level after a single intravenous bolus injection: 2.61 ± 0.09 mmol/L
[3]; 4.5 mg/kg i.v., 4 h
  blood phosphorus level after a single intravenous bolus injection: 2.89 ± 0.05 mmol/L
[3]; 4.5 mg/kg i.v., 8 h
  blood phosphorus level after a single intravenous bolus injection: 3.53 ± 0.08 mmol/L
[3]; 4.5 mg/kg i.v., 16 h
  blood phosphorus level after a single intravenous bolus injection: 2.75 ± 0.07 mmol/L
[3]; normal rats, single tail vein bolus injection
  effect on blood phosphorus concentration (in words): increasing the blood phosphorus concentration
[4]
  concentration that significantly stimulated proliferation of osteoblast MC3T3-E1 Subclone 4 cells: 10^−8 to 10^−13 M
[5]; 1.0 mg/kg s.c. three times a week for six weeks
  Cortical bone porosity: 6.25 ± 2.22%
[5]; 2.0 mg/kg s.c. three times a week for six weeks
  Cortical bone porosity: 4.11 ± 1.54%
[5]; 4.0 mg/kg s.c. three times a week for six weeks
  Cortical bone porosity: 0.66 ± 0.22%
[5]; continuous administration for 6 weeks, effect better than that of etelcalcetide
  cortical bone porosity compared with adenine model group (in words): significantly reduced
[6]; [7]
  blood calcium level after a single intravenous bolus injection: 2.46 ± 0.02 mmol/L
[6]; 0.5 mg/kg i.v., 4 h
  blood calcium level after a single intravenous bolus injection: 2.04 ± 0.04 mmol/L
[6]; 0.5 mg/kg i.v., 8 h
  blood calcium level after a single intravenous bolus injection: 2.18 ± 0.06 mmol/L
[6]; 0.5 mg/kg i.v., 16 h
  blood calcium level after a single intravenous bolus injection: 2.26 ± 0.02 mmol/L
[6]; [8]
  blood calcium level after a single intravenous bolus injection: 2.47 ± 0.02 mmol/L
[6]; 1.5 mg/kg i.v., 4 h
  blood calcium level after a single intravenous bolus injection: 1.91 ± 0.02 mmol/L
[6]; 1.5 mg/kg i.v., 8 h
  blood calcium level after a single intravenous bolus injection: 1.96 ± 0.02 mmol/L
[6]; 1.5 mg/kg i.v., 16 h
  blood calcium level after a single intravenous bolus injection: 2.19 ± 0.02 mmol/L
[6]; [9]
  blood calcium level after a single intravenous bolus injection: 2.46 ± 0.02 mmol/L
[6]; 4.5 mg/kg i.v., 4 h
  blood calcium level after a single intravenous bolus injection: 1.60 ± 0.03 mmol/L
[6]; 4.5 mg/kg i.v., 8 h
  blood calcium level after a single intravenous bolus injection: 1.46 ± 0.04 mmol/L
[6]; 4.5 mg/kg i.v., 16 h
  blood calcium level after a single intravenous bolus injection: 1.53 ± 0.05 mmol/L
[6]; normal rats, single tail vein bolus injection, each administration group, P≤0.01
  blood calcium levels compared with the concentration before administration (in words): decreased significantly
Fibroblast NIH/3T3 cells
  concentration that significantly stimulates proliferation of fibroblast NIH3T3 cells (effective dose): 10^−8 M
